For experiment [1], the target named is T1, GST-VAMP8 (VAMP8 residues 1-76, full cytoplasmic portion) (mouse) (UniProt O70404).
T1 sequence: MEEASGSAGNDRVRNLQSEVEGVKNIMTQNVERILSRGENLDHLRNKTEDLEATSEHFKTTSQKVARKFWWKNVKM
The experiment is described as follows: SPR; GST VAMP8 coupled directly to a CM5 chip; 200 nM analyte for 60 s at 30 μl/min; 20 mM HEPES pH 7.4, 150 mM NaCl, 4 mM DTT; Biacore 3000, 20°C; mock channel (GST) subtracted; both purified. In general terms: Surface plasmon resonance follows binding to a sensor surface in real time, without labels.

Sequences of proteins named here, by UniProt entry; tags and fusion partners are left off. Residues count along the entry.
UniProt P63027, residues 1-96: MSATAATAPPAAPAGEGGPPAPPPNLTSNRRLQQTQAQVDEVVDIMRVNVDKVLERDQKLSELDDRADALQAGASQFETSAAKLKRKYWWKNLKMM

Experiment [2] addresses T1, GST-VAMP8 (VAMP8 residues 1-76, full cytoplasmic portion) (mouse). Put plainly: pull-down; GST-tagged bait (SNARE or preformed, purified 1:1:1 SNARE complex, 2 nmoles) on glutathione beads, His6Myc-tagged prey; 20 mM HEPES pH 7.4, 150 mM NaCl, 4 mM DTT, 4 mM β-mercaptoethanol, 0.1% NP-40, 0.05% BSA; 4°C overnight; Coomassie gel and anti-myc western blot; both purified. On the technique in general: A western blot detects proteins with antibodies after separation by electrophoresis.

Experiment [3] concerns the target GST-VAMP2 (VAMP2 residues 1-96) (human) (UniProt P63027). The experiment is described as above.

These are yes or no findings as the source states them, for the method shown. Where a sequence is shown, tags or fusion partners need not be part of it.

B1: His6MycAP180_(ANTH) (AP180 ANTH domain, residues 1-304) (domain or fragment, UniProt Q61548 1-304)
chain: MSGQTLTDRIAAAQYSVTGSAVARAVCKATTHEVMGPKKKHLDYLIQATNETNVNIPQMADTLFERATNSSWVVVFKALVTTHHLMVHGNERFIQYLASRNTLFNLSNFLDKSGSHGYDMSTFIRRYSRYLNEKAFSYRQMAFDFARVKKGADGVMRTMVPEKLLKSMPILQGQIDALLEFDVHPNELTNGVINAAFMLLFKDLIKLFACYNDGVINLLEKFFEMKKGQCKDALEIYKRFLTRMTRVSEFLKVAEQVGIDKGDIPDLTQAPSSLMETLEQHLNTLEGKKPGNNEGSGAPSPLSK
In the case of B1, the binding entry was “no binding (tested: 200 nM)” in experiment [1], “no binding” in experiment [2] and “no binding” in experiment [3].

The values above are taken from PMC3267021, “The Molecular Basis for the Endocytosis of Small R-SNAREs by the Clathrin Adaptor CALM” (Cell, 2011).
